Experimental data from PubChem BioAssay AID248 (DTP/NCI, 2004).
The list is a part of this screen's results and no random one: it is rich in T/C values a quarter to a half above the control, in often repeated tests (any T/C) and in doses without a T/C. Other doses and runs of a compound stand elsewhere. T/C: endpoint of the treated group in % of that of the vehicle group. Some doses have a count of surviving animals in place of a T/C: the source files T/C as zero there, which appears to mark a toxic dose or a test without result, not a measured value. Some doses without a T/C left all or most animals alive at the check, yet need not have been tolerated: the source hardly ever lists a survival T/C far under the control, and the zero likely stands for such cases as well. Counts of survivors are from the toxicity check (mostly the fifth day) where no day follows; animals may have died later. Schedules are NCI's codes, taken here to give the interval after Q, in days (D) or hours (H), and the number of doses after X. Some entries hold several experiments; the values are given in rising order. Some schedules carry Z or #; the key to these is not given. For survival time, this PubChem deposit counts one and a half times the control or more as active, and values a quarter to a half above the control carry no call in these data; other NCI protocols may use other cut-offs.

Test system: L1210 leukemia ip in BDF1 mice, survival T/C
Assay: NCI In Vivo Anticancer Drug Screen. Data for tumor model L1210 Leukemia (intraperitoneal) in B6D2F1 (BDF1) mice
Details: T/C endpoint: mean survival time, higher T/C = longer survival
[1] = dose: 100.0 mg/kg/injection, schedule: Q04DX003 (ip), vehicle: saline with Tween-80
[2] = dose: 200.0 mg/kg/injection, schedule: Q04DX003 (ip), vehicle: saline with Tween-80
[3] = dose: 400.0 mg/kg/injection, schedule: Q04DX003 (ip), vehicle: saline with Tween-80
[4] = dose: 200.0 mg/kg/injection, schedule: Q01DX009 (ip), vehicle: Klucel (hydroxypropylcellulose) (HPC)
[5] = dose: 400.0 mg/kg/injection, schedule: Q01DX009 (ip), vehicle: Klucel (hydroxypropylcellulose) (HPC)
[6] = dose: 400.0 mg/kg/injection, schedule: Q01DX009 (ip), vehicle: saline
[7] = dose: 200.0 mg/kg/injection, schedule: Q04DX003 (ip), vehicle: saline
[8] = dose: 400.0 mg/kg/injection, schedule: Q01DX001 (ip), vehicle: saline
[9] = dose: 400.0 mg/kg/injection, schedule: Q04DX003 (ip), vehicle: saline
[10] = dose: 200.0 mg/kg/injection, schedule: Q04DX003 (ip), vehicle: Klucel (hydroxypropylcellulose) (HPC)
[11] = dose: 100.0 mg/kg/injection, schedule: Q04DX003 (ip), vehicle: saline
[12] = dose: 30.0 mg/kg/injection, schedule: Q01DX Z (ip), vehicle: saline
[13] = dose: 120.0 mg/kg/injection, schedule: Q01DX Z (ip), vehicle: saline

For [Cu+2].[NH-]CC(=O)O.[NH-]CC(=O)O, the survivor count [1] was 0 of 6, the survivor count [2] was 0 of 6 and the survivor count [3] was 0 of 6.
In the case of CN(C)c1ccc(N=Nc2ccncc2)cc1, the survivor count [4] is reported as 3 of 6 and the survivor count [5] is reported as 1 of 6.
With NC(=O)c1ccc[n+](CCN(CCCl)c2ccc3ccccc3c2)c1 the survivor count (dose: 100.0 mg/kg/injection, schedule: Q01DX009 (ip), vehicle: Klucel (hydroxypropylcellulose) (HPC)) was 0 of 6, the survivor count [4] was 0 of 6 and the survivor count [5] was 0 of 6.
For N#CSc1c[nH]c2ccccc12, the survivor count (dose: 200.0 mg/kg/injection, schedule: Q01DX009 (ip), vehicle: saline with Tween-80) was 4 of 6 and the survivor count [3] was 0 of 6.
CC(=O)OCc1ccc[n+](CCc2c[nH]c3ccccc23)c1 was tested, and the survivor count [3] was 1 of 6.
For O=C(N/N=C/c1ccncc1)c1ccccc1, the survivor count [6] was 3 of 6.
For COc1cc2ccc(C(C)NCC#N)cc2cc1OC (configuration not stated), the survivor count [5] was 3 of 6.
With C=NC the survivor count (dose: 200.0 mg/kg/injection, schedule: Q01DX001 (ip), vehicle: saline) was 5 of 6, the survivor count [7] was 3 of 6 and the survivor count [8] was 0 of 6. The survivor count [9] was 0 of 6.
Cc1nc(N)ncc1CCC1OCCO1 was tested, and the survivor count (dose: 200.0 mg/kg/injection, schedule: Q04DX002 (ip), vehicle: Klucel (hydroxypropylcellulose) (HPC)) was 3 of 3 and the survivor count (dose: 400.0 mg/kg/injection, schedule: Q04DX002 (ip), vehicle: Klucel (hydroxypropylcellulose) (HPC)) was 0 of 3.
C[n+]1ccn2ccccc21 was tested, and the survivor count (dose: 200.0 mg/kg/injection, schedule: Q01DX001 (ip), vehicle: saline with Tween-80) was 0 of 6.
Cc1cccc(C)c1N(N=O)C(=O)c1ccccc1 was tested, and the survivor count (dose: 300.0 mg/kg/injection, schedule: Q01DX001 (ip), vehicle: saline) was 2 of 6.
With Cc1cc(N(CCCOS(C)(=O)=O)CCCOS(C)(=O)=O)ccc1C=Nc1ccc2ccccc2c1 the survivor count [1] was 6 of 6 and the survivor count [2] was 6 of 6.
With CC(C)(C)NCC(CN(CC(CNC(C)(C)C)C(=O)c1ccccc1)C(C)(C)C)C(=O)c1ccccc1 (configuration not stated) the survivor count [10] was 0 of 6 and the survivor count (dose: 400.0 mg/kg/injection, schedule: Q04DX003 (ip), vehicle: Klucel (hydroxypropylcellulose) (HPC)) was 0 of 6.
O=c1[nH]c(=O)c(C2OC(CO)C(O)C2O)co1 (configuration not stated) was tested, and the survivor count (dose: 25.0 mg/kg/injection, schedule: Q04DX003 (ip), vehicle: saline with Tween-80) was 2 of 6.
For COC(=O)c1cc(N2CC2)nc(Cl)n1, the survivor count (dose: 100.0 mg/kg/injection, schedule: Q01DX Z (ip), vehicle: methylcellulose (MC)) was 2 of 6 and the survivor count (dose: 200.0 mg/kg/injection, schedule: Q01DX Z (ip), vehicle: methylcellulose (MC)) was 2 of 6.
For CN=C(N)c1ccc(N=C(N)c2ccc(N=C(N)c3ccc(NC(=O)c4ccc(C(=O)Nc5ccc(C(N)=Nc6ccc(C(N)=Nc7ccc(C(N)=NC)cc7)cc6)cc5)cc4)cc3)cc2)cc1, the T/C (dose: 25.0 mg/kg/injection, schedule: Q01DX Z (ip), vehicle: water) was 125 % of control.
For C1=C\C2CC2CCCC/1 (configuration not stated), the survivor count (dose: 100.0 mg/kg/injection, schedule: Q01DX005 (ip), vehicle: saline with Tween-80) was 3 of 3, the survivor count (dose: 200.0 mg/kg/injection, schedule: Q01DX005 (ip), vehicle: saline with Tween-80) was 3 of 3 and the survivor count (dose: 400.0 mg/kg/injection, schedule: Q01DX005 (ip), vehicle: saline with Tween-80) was 3 of 3.
In the case of CN(C)C(=S)[S][Sb]([c]1ccccc1)[c]1ccccc1, the survivor count (dose: 200.0 mg/kg/injection, schedule: Q01DX001 (ip), vehicle: other) is reported as 1 of 4 and the survivor count (dose: 400.0 mg/kg/injection, schedule: Q01DX001 (ip), vehicle: other) is reported as 0 of 4.
In the case of CN1CCC(=C(C#N)c2ccccc2)CC1, the survivor count [11] is reported as 0 of 6.
With CCOC(=O)c1ccc[n+](CCCl)c1 the survivor count (dose: 300.0 mg/kg/injection, schedule: Q01DX Z (ip), vehicle: saline) was 1 of 6.
O=C1Cc2cccc(=O)c(O)c2C(=O)O1 was tested, and the survivor count (dose: 100.0 mg/kg/injection, schedule: Q01DX009 (ip), vehicle: saline) was 6 of 6, the survivor count (dose: 200.0 mg/kg/injection, schedule: Q01DX009 (ip), vehicle: saline) was 6 of 6 and the survivor count [7] was 2 of 6. The survivor count [6] was 6 of 6 and the survivor count [9] was 2 of 6.
With CN(N)C(=O)Nc1ccccc1Cl the survivor count (dose: 300.0 mg/kg/injection, schedule: Q01DX001 (ip), vehicle: carboxymethylcellulose (CMC)) was 1 of 6.
For CNC(=O)c1cc(NC(=O)Nc2cccc(C3=NCCN3)c2)cc(NC(=O)Nc2cccc(C3=NCCN3)c2)c1, the T/C [12] was 127 % of control and the survivor count [13] was 0 of 6.
CC(C)CCOC(CN)C(Cl)(Cl)Cl (configuration not stated) was tested, and the T/C (dose: 100.0 mg/kg/injection, schedule: Q04DX002 (ip), vehicle: saline) was 94, 101, 103, 106 % of control, the survivor count (dose: 200.0 mg/kg/injection, schedule: Q04DX002 (ip), vehicle: saline) was 3 of 6 and 2 of 3 and the survivor count [7] was 0 of 6. The survivor count (dose: 400.0 mg/kg/injection, schedule: Q04DX002 (ip), vehicle: saline) was 0 of 3 and 1 of 6 and the survivor count [9] was 0 of 6.
For [C-]#[N+]CCCCCC, the survivor count (dose: 8.43 mg/kg/injection, schedule: Q01DX009 (ip), vehicle: olive oil, sesame oil, peanut oil) was 6 of 6, the survivor count (dose: 16.87 mg/kg/injection, schedule: Q01DX009 (ip), vehicle: olive oil, sesame oil, peanut oil) was 6 of 6 and the survivor count (dose: 33.75 mg/kg/injection, schedule: Q01DX009 (sc), vehicle: saline) was 2 of 6. For the same compound, the survivor count (dose: 67.5 mg/kg/injection, schedule: Q01DX009 (sc), vehicle: saline) was 0 of 6, the survivor count (dose: 135.0 mg/kg/injection, schedule: Q01DX009 (sc), vehicle: saline) was 0 of 6 and the survivor count (dose: 200.0 mg/kg/injection, schedule: Q04DX003 (sc), vehicle: olive oil, sesame oil, peanut oil) was 0 of 6. For the same compound, the survivor count (dose: 305.0 mg/kg/injection, schedule: Q04DX003 (sc), vehicle: olive oil, sesame oil, peanut oil) was 0 of 6.
Cc1cc(=O)[nH]c2c1ccc1[nH]c(=O)cc(C)c12 was tested, and the survivor count [10] was 6 of 6.
In the case of Nc1cc(N)cc([N+](=O)[O-])c1, the survivor count [11] is reported as 1 of 6, the survivor count [7] is reported as 0 of 6 and the survivor count [9] is reported as 0 of 6.
For CCN(CC)C(=O)/C=C/c1ccccc1, the survivor count [8] was 2 of 4.
In the case of NC(CS/C(Cl)=C/Cl)C(=O)O (configuration not stated), the survivor count (dose: 40.0 mg/kg/injection, schedule: Q01DX009 (ip), vehicle: saline) is reported as 5 of 6.
In the case of CC(=O)Nc1nc(Cl)c([N+](=O)[O-])c(Cl)n1, the survivor count (dose: 25.0 mg/kg/injection, schedule: Q01DX001 (ip), vehicle: Klucel (hydroxypropylcellulose) (HPC)) is reported as 0 of 6 and the survivor count (dose: 50.0 mg/kg/injection, schedule: Q01DX001 (ip), vehicle: Klucel (hydroxypropylcellulose) (HPC)) is reported as 0 of 6.
With CC1CNC(c2ccc(NC(=O)c3ccc(C(=O)Nc4ccc(C5=NC(C)CN5)cc4)c(NC(=O)Nc4cccc(C5=NC(C)CN5)c4)c3)cc2)=N1 (configuration not stated) the T/C (dose: 3.75 mg/kg/injection, schedule: Q01DX Z (ip), vehicle: saline) was 147 % of control, the survivor count (dose: 15.0 mg/kg/injection, schedule: Q01DX Z (ip), vehicle: saline) was 0 of 6 and the survivor count [12] was 0 of 6. For the same compound, the survivor count (dose: 60.0 mg/kg/injection, schedule: Q01DX Z (ip), vehicle: saline) was 0 of 6, the survivor count [13] was 0 of 6 and the survivor count (dose: 500.0 mg/kg/injection, schedule: Q01DX010 (oral), vehicle: saline) was 3 of 6.
With O=C(CCl)OC1CCCCC1 the survivor count (dose: 400.0 mg/kg/injection, schedule: Q01DX009 (ip), vehicle: saline with Tween-80) was 0 of 6.
In the case of O=C(O)C1=CCC=CC1C(=O)O (configuration not stated), the survivor count [9] is reported as 2 of 6.
